PubChem BioAssay AID602196 – INSERM – 2012
Test: 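Modifiers of cisplatin sensitivity in A549 cells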. Cells: human A549 lung cancer cells. Knock-down reagent: siRNA pair against human genes. Duration: 48 h transfection before cisplatin; time from cisplatin to read-out not stated. Treatment: cisplatin at a dose killing half of control-siRNA cells; exact dose and duration not given. Measurement: 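Cisplatin cell death as a shift from the 50% death seen with control siRNA; siRNAs toxic or growth-blocking alone scored 0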. Scale: two-siRNA summed score (-2 to +2): higher = both siRNAs protect from cisplatin killing; -2 means both sensitise; mean protection from cisplatin (shift in death) and protection from cisplatin (shift in death), siRNA C: higher = protection from cisplatin killing. Call rule: 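Each siRNA scores 0 if harmful alone by LDH or WST-1, otherwise +1 if it reduces and -1 if it increases cisplatin killing; a gene is active when both siRNAs agree (sum +2 or -2)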. Calls: active = both siRNAs shift cisplatin killing the same way; inactive = no consistent shift, or siRNA harmful alone.
This is an unselected part of about 23,000 deposited reagents. Of all reagents, 455 (2%) are marked active. 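Active includes both protection and sensitisation; some change values fall well beyond the stated -50 to +50 range.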 The numbers tell different reagents against one gene apart. Not all columns of the deposit are shown. The record does not give: the amount of reagent.

target gene | reagent no. | two-siRNA summed score (-2 to +2) | mean protection from cisplatin (shift in death) (%) | protection from cisplatin (shift in death), siRNA C (%) | activity call
DAND5 | 1 | 0 | 10.8 | 12.3 | inactive
PABIR3 | 1 | 0 | 1.3 | 5.8 | inactive
FGFRL1 | 1 | 0 | 2.1 | 14.1 | inactive
CES1P1 | 1 | 0 | -15.1 | -7.5 | inactive
LSM11 | 1 | 0 | 10.5 | 11.6 | inactive
MTF1 | 1 | 1 | 10.5 | 21.7 | inactive
LOC392533 | 1 | 0 | 2.2 | 9.2 | inactive
POLG | 1 | 0 | -13.5 | -28 | inactive
LOC440250 | 1 | 0 | -3.6 | 7.3 | inactive
LOC441697 | 1 | 0 | 7.5 | 2.6 | inactive
ACP6 | 1 | 0 | 2.7 | -5.8 | inactive
RNF43 | 1 | 0 | 4.6 | 2.8 | inactive
RAI1 | 1 | 0 | 1.6 | 6.4 | inactive
PIGV | 1 | -1 | -14.4 | -2.7 | inactive
ZNF3 | 1 | 0 | 5.7 | 4.8 | inactive
P4HTM | 1 | 0 | -16 | -32 | inactive
MTCL1 | 1 | 0 | 0.9 | -5.7 | inactive
CACNB2 | 1 | 0 | -6.9 | 1 | inactive
ZNF322P1 | 1 | 0 | 14.2 | 10.9 | inactive
FAM174B | 1 | 0 | -4.9 | 4.4 | inactive
TRMT2B | 1 | 0 | -2.7 | 0.7 | inactive
DNAJC5B | 1 | 1 | 13.4 | 16 | inactive
ANO6 | 1 | 0 | 11.6 | 14 | inactive
PTPRO | 1 | 0 | 2 | 2.3 | inactive
LNX1 | 1 | 0 | 9.3 | 3.4 | inactive
TLR1 | 1 | 0 | 2.3 | -0.6 | inactive
PIWIL2 | 1 | 0 | 2.8 | 11.1 | inactive
NAPRT | 1 | 0 | -5.1 | 1.2 | inactive
SLC7A6 | 1 | 0 | -8.6 | 3.9 | inactive
LOC344191 | 1 | 0 | -11.7 | -9.8 | inactive
ILF2 | 1 | -1 | -11.8 | 1.7 | inactive
ATP8B4 | 1 | 0 | -10.4 | -8.7 | inactive
FLJ40176 | 1 | 0 | 7.3 | 10.4 | inactive
DDI2 | 1 | 0 | 5.6 | 7.8 | inactive
DDI2 | 2 | 1 | 11.3 | 1.7 | inactive
LOC400733 | 1 | 0 | -0.9 | -25.7 | inactive
GNRHR | 1 | 0 | 3.9 | 9.4 | inactive
CAV1 | 1 | 0 | 8.3 | -1.3 | inactive
GSX2 | 1 | 0 | 3.3 | -9.7 | inactive
ELOVL6 | 1 | 0 | 7.6 | 7.1 | inactive
CHRM2 | 1 | 1 | 6.7 | -1.4 | inactive
CAPS2 | 1 | 0 | 4.6 | -12.2 | inactive
AKNA | 1 | 0 | 6.6 | 3.9 | inactive
LINC01483 | 1 | 0 | 13.2 | 15.5 | inactive
CFAP46 | 1 | -1 | -19.2 | -35.4 | inactive
CFAP46 | 2 | 0 | -1.7 | 9.1 | inactive
ASCL2 | 1 | 2 | 30.4 | 41.2 | active
EIF3A | 1 | 0 | 12.7 | 17.3 | inactive
LOC401937 | 1 | 2 | 13.4 | 14.2 | active
TUBB8P11 | 1 | 0 | 1.2 | -3.5 | inactive
WWC1 | 1 | 0 | 0.8 | 0.2 | inactive
TMEM145 | 1 | 0 | 1.8 | -4.9 | inactive
RGMB | 1 | 0 | 6.4 | 7.2 | inactive
RNF44 | 1 | 1 | 10.8 | 12.3 | inactive
LSM1 | 1 | 0 | 6.1 | 12.5 | inactive
LOC391352 | 1 | 0 | 3.3 | -7.4 | inactive
FAM240C | 1 | 1 | 26.9 | 43.7 | inactive

In a second layout: 8 of the entries above.
{"target gene":"TUBB8P11","reagent no.":1,"two-siRNA summed score (-2 to +2)":0,"mean protection from cisplatin (shift in death) (%)":1.2,"protection from cisplatin (shift in death), siRNA C (%)":-3.5,"activity call":"inactive"}
{"target gene":"WWC1","reagent no.":1,"two-siRNA summed score (-2 to +2)":0,"mean protection from cisplatin (shift in death) (%)":0.8,"protection from cisplatin (shift in death), siRNA C (%)":0.2,"activity call":"inactive"}
{"target gene":"TMEM145","reagent no.":1,"two-siRNA summed score (-2 to +2)":0,"mean protection from cisplatin (shift in death) (%)":1.8,"protection from cisplatin (shift in death), siRNA C (%)":-4.9,"activity call":"inactive"}
{"target gene":"RGMB","reagent no.":1,"two-siRNA summed score (-2 to +2)":0,"mean protection from cisplatin (shift in death) (%)":6.4,"protection from cisplatin (shift in death), siRNA C (%)":7.2,"activity call":"inactive"}
{"target gene":"RNF44","reagent no.":1,"two-siRNA summed score (-2 to +2)":1,"mean protection from cisplatin (shift in death) (%)":10.8,"protection from cisplatin (shift in death), siRNA C (%)":12.3,"activity call":"inactive"}
{"target gene":"LSM1","reagent no.":1,"two-siRNA summed score (-2 to +2)":0,"mean protection from cisplatin (shift in death) (%)":6.1,"protection from cisplatin (shift in death), siRNA C (%)":12.5,"activity call":"inactive"}
{"target gene":"LOC391352","reagent no.":1,"two-siRNA summed score (-2 to +2)":0,"mean protection from cisplatin (shift in death) (%)":3.3,"protection from cisplatin (shift in death), siRNA C (%)":-7.4,"activity call":"inactive"}
{"target gene":"FAM240C","reagent no.":1,"two-siRNA summed score (-2 to +2)":1,"mean protection from cisplatin (shift in death) (%)":26.9,"protection from cisplatin (shift in death), siRNA C (%)":43.7,"activity call":"inactive"}
